For some assays here: Shown are results outside the selection of strong results, which stands elsewhere. How the calls were made is not given here. This is a selection; strong and weak results do not stand in their true shares.
Assays:
[1] = target: Dual specificity protein kinase CLK3 (Homo sapiens) (UniProt P49761); settings: at 1 µM
[2] = target: Dual specificity protein kinase CLK3 (Homo sapiens) (UniProt P49761); settings: at 10 µM
[3] = target: Tyrosine-protein kinase CSK (Homo sapiens) (UniProt P41240); settings: at 1 µM
[4] = target: Tyrosine-protein kinase CSK (Homo sapiens) (UniProt P41240); settings: at 10 µM
[5] = target: Calcium/calmodulin-dependent protein kinase type 1 (Homo sapiens) (UniProt Q14012); settings: at 1 µM
[6] = target: Calcium/calmodulin-dependent protein kinase type 1 (Homo sapiens) (UniProt Q14012); settings: at 10 µM
[7] = target: Calcium/calmodulin-dependent protein kinase type II subunit beta (Homo sapiens) (UniProt Q13554); settings: at 1 µM
[8] = target: Calcium/calmodulin-dependent protein kinase type II subunit beta (Homo sapiens) (UniProt Q13554); settings: at 10 µM
[9] = target: Calcium/calmodulin-dependent protein kinase type II subunit gamma (Homo sapiens) (UniProt Q13555); settings: at 1 µM
[10] = target: Calcium/calmodulin-dependent protein kinase type II subunit gamma (Homo sapiens) (UniProt Q13555); settings: at 10 µM
[11] = target: Calcium/calmodulin-dependent protein kinase type II subunit delta (Homo sapiens) (UniProt Q13557); settings: at 1 µM
[12] = target: Calcium/calmodulin-dependent protein kinase type II subunit delta (Homo sapiens) (UniProt Q13557); settings: at 10 µM
[13] = target: Calcium/calmodulin-dependent protein kinase type IV (Homo sapiens) (UniProt Q16566); settings: at 1 µM
[14] = target: Calcium/calmodulin-dependent protein kinase type IV (Homo sapiens) (UniProt Q16566); settings: at 10 µM
[15] = target: Death-associated protein kinase 1 (Homo sapiens) (UniProt P53355); settings: at 1 µM
[16] = target: Death-associated protein kinase 1 (Homo sapiens) (UniProt P53355); settings: at 10 µM
[17] = target: Death-associated protein kinase 2 (Homo sapiens) (UniProt Q9UIK4); settings: at 1 µM
[18] = target: Death-associated protein kinase 2 (Homo sapiens) (UniProt Q9UIK4); settings: at 10 µM
[19] = target: Serine/threonine-protein kinase DCLK2 (Homo sapiens) (UniProt Q8N568); settings: at 1 µM
[20] = target: Serine/threonine-protein kinase DCLK2 (Homo sapiens) (UniProt Q8N568); settings: at 10 µM
[21] = target: Discoidin domain-containing receptor 2 (Homo sapiens) (UniProt Q16832); settings: at 1 µM
[22] = target: Discoidin domain-containing receptor 2 (Homo sapiens) (UniProt Q16832); settings: at 10 µM
[23] = target: Myotonin-protein kinase (Homo sapiens) (UniProt Q09013); settings: at 1 µM
[24] = target: Myotonin-protein kinase (Homo sapiens) (UniProt Q09013); settings: at 10 µM
[25] = target: Serine/threonine-protein kinase 17A (Homo sapiens) (UniProt Q9UEE5); settings: at 1 µM
[26] = target: Serine/threonine-protein kinase 17A (Homo sapiens) (UniProt Q9UEE5); settings: at 10 µM
[27] = target: Dual specificity tyrosine-phosphorylation-regulated kinase 2 (Homo sapiens) (UniProt Q92630); settings: at 1 µM
[28] = target: Dual specificity tyrosine-phosphorylation-regulated kinase 2 (Homo sapiens) (UniProt Q92630); settings: at 10 µM
[29] = target: Epidermal growth factor receptor (Homo sapiens) (UniProt P00533); settings: at 1 µM
[30] = target: Epidermal growth factor receptor (Homo sapiens) (UniProt P00533); settings: at 10 µM
[31] = target: Ephrin type-A receptor 1 (Homo sapiens) (UniProt P21709); settings: at 1 µM
[32] = target: Ephrin type-A receptor 1 (Homo sapiens) (UniProt P21709); settings: at 10 µM
[33] = target: Ephrin type-A receptor 2 (Homo sapiens) (UniProt P29317); settings: at 1 µM
[34] = target: Ephrin type-A receptor 2 (Homo sapiens) (UniProt P29317); settings: at 10 µM
[35] = target: Ephrin type-A receptor 3 (Homo sapiens) (UniProt P29320); settings: at 1 µM
[36] = target: Ephrin type-A receptor 3 (Homo sapiens) (UniProt P29320); settings: at 10 µM
[37] = target: Ephrin type-A receptor 4 (Homo sapiens) (UniProt P54764); settings: at 1 µM
[38] = target: Ephrin type-A receptor 4 (Homo sapiens) (UniProt P54764); settings: at 10 µM
[39] = target: Ephrin type-A receptor 5 (Homo sapiens) (UniProt P54756); settings: at 1 µM
[40] = target: Ephrin type-A receptor 5 (Homo sapiens) (UniProt P54756); settings: at 10 µM
[41] = target: Ephrin type-A receptor 7 (Homo sapiens) (UniProt Q15375); settings: at 1 µM
[42] = target: Ephrin type-A receptor 7 (Homo sapiens) (UniProt Q15375); settings: at 10 µM
[43] = target: Ephrin type-A receptor 8 (Homo sapiens) (UniProt P29322); settings: at 1 µM
[44] = target: Ephrin type-A receptor 8 (Homo sapiens) (UniProt P29322); settings: at 10 µM
[45] = target: Ephrin type-B receptor 1 (Homo sapiens) (UniProt P54762); settings: at 1 µM
[46] = target: Ephrin type-B receptor 1 (Homo sapiens) (UniProt P54762); settings: at 10 µM
[47] = target: Ephrin type-B receptor 2 (Homo sapiens) (UniProt P29323); settings: at 1 µM
[48] = target: Ephrin type-B receptor 2 (Homo sapiens) (UniProt P29323); settings: at 10 µM
[49] = target: Ephrin type-B receptor 3 (Homo sapiens) (UniProt P54753); settings: at 1 µM
[50] = target: Ephrin type-B receptor 3 (Homo sapiens) (UniProt P54753); settings: at 10 µM
[51] = target: Ephrin type-B receptor 4 (Homo sapiens) (UniProt P54760); settings: at 1 µM
[52] = target: Ephrin type-B receptor 4 (Homo sapiens) (UniProt P54760); settings: at 10 µM
[53] = target: Receptor tyrosine-protein kinase erbB-4 (Homo sapiens) (UniProt Q15303); settings: at 1 µM
[54] = target: Receptor tyrosine-protein kinase erbB-4 (Homo sapiens) (UniProt Q15303); settings: at 10 µM
[55] = target: Focal adhesion kinase 1 (Homo sapiens) (UniProt Q05397); settings: at 1 µM
[56] = target: Focal adhesion kinase 1 (Homo sapiens) (UniProt Q05397); settings: at 10 µM

By UniProt entry, the sequences of proteins in these tests, tags left out. Where a name states a change or a piece, a line headed by the entry shows the natural chain unless it says otherwise.
UniProt P41240: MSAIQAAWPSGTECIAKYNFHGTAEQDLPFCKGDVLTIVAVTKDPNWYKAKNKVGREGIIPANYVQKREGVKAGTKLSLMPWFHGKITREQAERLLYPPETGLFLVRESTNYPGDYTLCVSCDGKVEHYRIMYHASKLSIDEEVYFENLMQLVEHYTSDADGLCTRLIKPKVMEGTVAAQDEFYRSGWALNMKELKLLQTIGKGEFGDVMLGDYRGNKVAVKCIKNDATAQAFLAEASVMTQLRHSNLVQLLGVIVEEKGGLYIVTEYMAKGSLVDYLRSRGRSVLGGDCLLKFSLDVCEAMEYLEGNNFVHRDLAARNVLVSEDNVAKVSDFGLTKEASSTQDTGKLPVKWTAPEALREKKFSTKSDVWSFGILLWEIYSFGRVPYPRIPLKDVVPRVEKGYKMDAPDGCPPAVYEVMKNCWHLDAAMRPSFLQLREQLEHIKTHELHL
UniProt Q14012: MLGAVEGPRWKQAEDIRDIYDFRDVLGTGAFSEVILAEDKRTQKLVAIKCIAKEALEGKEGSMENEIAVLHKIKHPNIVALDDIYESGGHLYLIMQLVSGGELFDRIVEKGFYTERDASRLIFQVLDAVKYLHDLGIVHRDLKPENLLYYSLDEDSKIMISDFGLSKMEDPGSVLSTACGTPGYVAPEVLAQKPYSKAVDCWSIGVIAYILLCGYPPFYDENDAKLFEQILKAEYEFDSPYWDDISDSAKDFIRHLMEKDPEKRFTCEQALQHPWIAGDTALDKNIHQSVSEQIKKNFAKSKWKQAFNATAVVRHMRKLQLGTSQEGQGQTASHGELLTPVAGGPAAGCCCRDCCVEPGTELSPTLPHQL
UniProt Q13554, whole entry: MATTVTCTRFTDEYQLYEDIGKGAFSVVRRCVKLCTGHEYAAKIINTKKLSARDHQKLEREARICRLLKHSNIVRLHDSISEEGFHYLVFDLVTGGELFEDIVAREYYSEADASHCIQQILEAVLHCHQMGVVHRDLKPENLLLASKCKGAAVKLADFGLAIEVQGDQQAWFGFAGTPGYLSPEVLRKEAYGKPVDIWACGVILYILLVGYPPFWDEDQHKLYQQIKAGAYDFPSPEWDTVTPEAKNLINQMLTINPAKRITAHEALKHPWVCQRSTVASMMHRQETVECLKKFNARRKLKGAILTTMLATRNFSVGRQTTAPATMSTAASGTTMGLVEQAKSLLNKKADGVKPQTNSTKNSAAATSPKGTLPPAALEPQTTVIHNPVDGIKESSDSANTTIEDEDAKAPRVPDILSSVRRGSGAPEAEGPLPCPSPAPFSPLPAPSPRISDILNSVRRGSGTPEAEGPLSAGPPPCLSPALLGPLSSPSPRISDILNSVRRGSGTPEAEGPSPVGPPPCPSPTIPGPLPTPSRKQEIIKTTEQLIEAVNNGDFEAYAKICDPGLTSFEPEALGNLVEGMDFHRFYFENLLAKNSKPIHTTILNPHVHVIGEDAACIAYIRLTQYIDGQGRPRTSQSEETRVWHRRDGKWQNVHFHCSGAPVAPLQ
UniProt Q13555: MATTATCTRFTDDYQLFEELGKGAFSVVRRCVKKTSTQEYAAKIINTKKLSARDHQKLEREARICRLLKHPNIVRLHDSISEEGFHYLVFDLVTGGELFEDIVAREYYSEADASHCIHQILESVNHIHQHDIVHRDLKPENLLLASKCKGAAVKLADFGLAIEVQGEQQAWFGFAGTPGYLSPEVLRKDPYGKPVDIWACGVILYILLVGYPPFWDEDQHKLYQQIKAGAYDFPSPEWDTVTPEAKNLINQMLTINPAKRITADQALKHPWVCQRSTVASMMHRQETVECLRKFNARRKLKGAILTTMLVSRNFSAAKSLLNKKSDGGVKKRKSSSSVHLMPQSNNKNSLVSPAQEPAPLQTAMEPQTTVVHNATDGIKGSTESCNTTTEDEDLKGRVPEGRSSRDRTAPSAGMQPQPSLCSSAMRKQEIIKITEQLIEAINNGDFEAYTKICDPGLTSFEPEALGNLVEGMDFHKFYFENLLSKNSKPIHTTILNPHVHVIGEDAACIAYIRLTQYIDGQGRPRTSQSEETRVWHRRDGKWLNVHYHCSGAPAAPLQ
UniProt Q13557, whole entry: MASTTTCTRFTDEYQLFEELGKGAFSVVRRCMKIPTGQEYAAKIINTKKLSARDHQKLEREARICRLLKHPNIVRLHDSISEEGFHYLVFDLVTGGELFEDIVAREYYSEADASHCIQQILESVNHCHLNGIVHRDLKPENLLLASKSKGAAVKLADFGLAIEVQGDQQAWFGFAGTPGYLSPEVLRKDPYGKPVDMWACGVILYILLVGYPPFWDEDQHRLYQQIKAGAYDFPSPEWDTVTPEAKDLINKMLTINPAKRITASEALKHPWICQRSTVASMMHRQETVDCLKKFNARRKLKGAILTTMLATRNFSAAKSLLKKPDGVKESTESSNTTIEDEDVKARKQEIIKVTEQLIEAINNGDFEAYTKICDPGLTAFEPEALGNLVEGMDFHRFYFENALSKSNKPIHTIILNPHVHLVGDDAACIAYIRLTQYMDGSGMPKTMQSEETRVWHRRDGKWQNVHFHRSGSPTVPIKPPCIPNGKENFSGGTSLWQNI
UniProt Q9UIK4: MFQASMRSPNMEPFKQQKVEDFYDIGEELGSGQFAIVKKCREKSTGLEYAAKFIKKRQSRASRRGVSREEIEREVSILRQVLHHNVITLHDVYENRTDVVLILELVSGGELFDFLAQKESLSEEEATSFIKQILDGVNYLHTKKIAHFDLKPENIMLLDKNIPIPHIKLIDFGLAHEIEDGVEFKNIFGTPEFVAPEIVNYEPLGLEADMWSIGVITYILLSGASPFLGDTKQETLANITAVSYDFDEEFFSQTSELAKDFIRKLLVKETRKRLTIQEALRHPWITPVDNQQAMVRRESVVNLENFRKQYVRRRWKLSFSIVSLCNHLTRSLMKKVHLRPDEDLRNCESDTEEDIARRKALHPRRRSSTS
UniProt Q92630: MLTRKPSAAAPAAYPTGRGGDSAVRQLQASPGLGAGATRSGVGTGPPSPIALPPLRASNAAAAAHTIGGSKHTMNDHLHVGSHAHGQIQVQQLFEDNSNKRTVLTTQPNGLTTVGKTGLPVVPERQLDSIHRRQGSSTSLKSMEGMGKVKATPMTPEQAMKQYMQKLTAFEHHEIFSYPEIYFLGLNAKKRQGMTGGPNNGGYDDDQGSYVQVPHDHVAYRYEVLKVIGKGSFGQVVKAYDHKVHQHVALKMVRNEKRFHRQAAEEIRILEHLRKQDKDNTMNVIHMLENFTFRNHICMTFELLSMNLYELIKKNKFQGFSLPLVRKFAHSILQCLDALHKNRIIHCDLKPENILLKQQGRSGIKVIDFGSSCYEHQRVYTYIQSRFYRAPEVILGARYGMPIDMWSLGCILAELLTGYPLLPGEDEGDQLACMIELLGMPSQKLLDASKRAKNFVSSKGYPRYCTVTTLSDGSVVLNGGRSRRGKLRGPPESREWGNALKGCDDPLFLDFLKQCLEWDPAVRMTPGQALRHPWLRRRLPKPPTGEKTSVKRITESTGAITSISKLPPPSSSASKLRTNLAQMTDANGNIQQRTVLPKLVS
UniProt P54764, whole entry: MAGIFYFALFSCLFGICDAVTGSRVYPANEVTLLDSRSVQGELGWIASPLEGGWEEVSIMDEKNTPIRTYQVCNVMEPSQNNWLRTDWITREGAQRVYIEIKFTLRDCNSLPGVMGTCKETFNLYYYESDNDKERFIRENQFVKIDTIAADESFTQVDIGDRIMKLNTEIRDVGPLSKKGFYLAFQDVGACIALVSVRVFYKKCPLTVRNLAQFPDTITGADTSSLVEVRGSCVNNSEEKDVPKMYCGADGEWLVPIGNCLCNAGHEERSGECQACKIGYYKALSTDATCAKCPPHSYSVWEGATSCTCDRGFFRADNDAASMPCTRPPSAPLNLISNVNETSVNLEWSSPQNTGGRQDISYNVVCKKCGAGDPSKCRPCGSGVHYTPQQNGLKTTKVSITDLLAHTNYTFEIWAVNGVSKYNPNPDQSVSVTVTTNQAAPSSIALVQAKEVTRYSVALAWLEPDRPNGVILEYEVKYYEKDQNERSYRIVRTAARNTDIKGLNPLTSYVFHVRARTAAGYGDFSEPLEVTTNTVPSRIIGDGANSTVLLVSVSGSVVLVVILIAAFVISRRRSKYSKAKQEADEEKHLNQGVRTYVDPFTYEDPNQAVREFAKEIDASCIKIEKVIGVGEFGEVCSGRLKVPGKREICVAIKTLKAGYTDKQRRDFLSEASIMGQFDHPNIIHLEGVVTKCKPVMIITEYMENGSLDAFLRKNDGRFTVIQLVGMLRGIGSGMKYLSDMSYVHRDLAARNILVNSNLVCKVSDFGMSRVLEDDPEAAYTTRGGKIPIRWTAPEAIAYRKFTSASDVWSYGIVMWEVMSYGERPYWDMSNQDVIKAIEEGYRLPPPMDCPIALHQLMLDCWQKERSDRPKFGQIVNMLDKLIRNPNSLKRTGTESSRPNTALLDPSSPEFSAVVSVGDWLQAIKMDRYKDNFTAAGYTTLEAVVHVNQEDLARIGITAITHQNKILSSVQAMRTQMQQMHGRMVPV
UniProt Q15375: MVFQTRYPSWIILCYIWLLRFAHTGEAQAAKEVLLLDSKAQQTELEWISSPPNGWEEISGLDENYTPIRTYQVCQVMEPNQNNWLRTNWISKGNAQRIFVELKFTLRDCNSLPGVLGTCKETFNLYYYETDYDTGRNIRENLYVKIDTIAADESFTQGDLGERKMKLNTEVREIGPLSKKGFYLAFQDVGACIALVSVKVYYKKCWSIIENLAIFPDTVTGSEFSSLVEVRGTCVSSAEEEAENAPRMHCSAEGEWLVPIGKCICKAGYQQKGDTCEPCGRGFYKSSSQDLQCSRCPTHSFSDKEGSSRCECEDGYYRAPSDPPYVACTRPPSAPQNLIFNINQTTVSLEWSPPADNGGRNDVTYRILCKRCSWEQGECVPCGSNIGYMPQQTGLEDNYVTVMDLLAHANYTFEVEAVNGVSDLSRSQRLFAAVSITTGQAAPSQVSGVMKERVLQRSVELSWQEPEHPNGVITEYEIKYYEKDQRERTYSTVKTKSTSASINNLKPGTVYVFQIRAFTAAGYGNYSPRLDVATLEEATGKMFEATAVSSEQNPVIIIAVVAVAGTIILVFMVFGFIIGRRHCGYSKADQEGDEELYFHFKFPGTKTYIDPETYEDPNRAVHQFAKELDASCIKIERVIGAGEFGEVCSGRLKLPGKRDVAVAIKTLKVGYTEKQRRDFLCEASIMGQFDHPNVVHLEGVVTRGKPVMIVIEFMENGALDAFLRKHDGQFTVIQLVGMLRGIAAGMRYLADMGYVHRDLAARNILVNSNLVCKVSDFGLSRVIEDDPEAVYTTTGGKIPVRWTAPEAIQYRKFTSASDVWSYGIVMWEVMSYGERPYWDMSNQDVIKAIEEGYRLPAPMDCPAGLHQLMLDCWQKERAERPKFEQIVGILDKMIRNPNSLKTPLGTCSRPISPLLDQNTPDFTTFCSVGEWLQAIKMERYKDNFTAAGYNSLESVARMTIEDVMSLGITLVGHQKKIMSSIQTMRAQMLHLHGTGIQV
UniProt P29322: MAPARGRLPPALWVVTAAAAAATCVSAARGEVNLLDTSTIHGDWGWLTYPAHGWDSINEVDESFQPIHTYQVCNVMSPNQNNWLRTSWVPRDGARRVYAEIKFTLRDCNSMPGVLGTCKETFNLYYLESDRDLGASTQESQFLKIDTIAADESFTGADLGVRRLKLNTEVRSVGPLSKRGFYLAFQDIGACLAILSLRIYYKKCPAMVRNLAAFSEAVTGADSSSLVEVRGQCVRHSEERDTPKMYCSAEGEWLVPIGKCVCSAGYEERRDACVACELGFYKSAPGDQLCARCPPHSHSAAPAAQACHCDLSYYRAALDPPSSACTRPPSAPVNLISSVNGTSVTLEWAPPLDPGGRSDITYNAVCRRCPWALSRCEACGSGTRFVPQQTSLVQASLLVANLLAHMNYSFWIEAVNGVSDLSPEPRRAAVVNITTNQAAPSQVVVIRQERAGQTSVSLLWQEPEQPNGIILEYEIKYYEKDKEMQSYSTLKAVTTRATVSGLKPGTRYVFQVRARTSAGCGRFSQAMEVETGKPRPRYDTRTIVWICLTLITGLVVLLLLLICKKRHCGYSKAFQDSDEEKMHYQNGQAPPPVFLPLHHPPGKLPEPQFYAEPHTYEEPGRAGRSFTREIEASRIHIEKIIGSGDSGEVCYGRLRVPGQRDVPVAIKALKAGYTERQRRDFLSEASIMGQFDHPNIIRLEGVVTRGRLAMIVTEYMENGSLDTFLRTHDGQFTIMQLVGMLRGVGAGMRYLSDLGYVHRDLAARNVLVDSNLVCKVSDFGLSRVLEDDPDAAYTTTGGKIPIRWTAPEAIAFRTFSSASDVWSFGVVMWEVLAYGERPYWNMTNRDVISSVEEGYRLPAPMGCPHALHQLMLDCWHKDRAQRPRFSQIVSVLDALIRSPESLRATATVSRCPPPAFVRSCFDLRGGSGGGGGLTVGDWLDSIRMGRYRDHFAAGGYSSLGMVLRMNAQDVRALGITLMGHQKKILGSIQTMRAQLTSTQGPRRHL

Q: Which results are given for `O=C1Nc2ccc(-c3cccnc3)cc2/C1=C\c1ccc[nH]1`?
A: residual activity [1]: 7%; residual activity [2]: 1%; residual activity [3]: 108%; residual activity [4]: 73%; residual activity [5]: 81%; residual activity [6]: 22%; residual activity [7]: 13%; residual activity [8]: 2%; residual activity [9]: 12%; residual activity [10]: -3%; residual activity [11]: 8%; residual activity [12]: 1%; residual activity [13]: 103%; residual activity [14]: 49%; residual activity [15]: 94%; residual activity [16]: 64%; residual activity [17]: 85%; residual activity [18]: 47%; residual activity [19]: 71%; residual activity [20]: 28%; residual activity [21]: 110%; residual activity [22]: 64%; residual activity [23]: 125%; residual activity [24]: 102%; residual activity [25]: 1%; residual activity [26]: 0%; residual activity [27]: -5%; residual activity [28]: -6%; residual activity [29]: 115%; residual activity [30]: 90%; residual activity [31]: 87%; residual activity [32]: 49%; residual activity [33]: 104%; residual activity [34]: 76%; residual activity [35]: 105%; residual activity [36]: 75%; residual activity [37]: 112%; residual activity [38]: 86%; residual activity [39]: 102%; residual activity [40]: 79%; residual activity [41]: 92%; residual activity [42]: 64%; residual activity [43]: 92%; residual activity [44]: 74%; residual activity [45]: 81%; residual activity [46]: 61%; residual activity [47]: 112%; residual activity [48]: 113%; residual activity [49]: inactive: 101%; residual activity [50]: 121%; residual activity [51]: 96%; residual activity [52]: 90%; residual activity [53]: 100%; residual activity [54]: 71%; residual activity [55]: 93%; residual activity [56]: 34%

Reference: ChEMBL document CHEMBL2218924, “A broad activity screen in support of a chemogenomic map for kinase signalling research and drug discovery” (Biochem J, 2013)
